# Data taken from the supplement of paper PMC5949888.
# Most values lie at the floor of the assay. Slopes are relative: functional sequences can read slightly below zero.
# Tested on: Saccharomyces cerevisiae PS128 hsf1 delta, HSF1(1-493) fusion
# Experiment: growth estimate (transactivation domain function in HSF1 fusion, heat-shock survival) (a.u. (slope of normalised read count over time)); higher = stronger growth at 37°C, i.e. more transactivation activity
# Settings: library: random library
# Protocol: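 Random 60-nt DNA library encoding peptides of up to 20 aa, fused to the C-terminus of yeast HSF1 residues 1-493 (C-terminal TAD deleted) and expressed from the native HSF1 promoter on a CEN plasmid in hsf1-deleted S. cerevisiae PS128. Cells were selected at 37°C on -trp 5-FOA plates for 0, 2, 4, 6 and 8 days and amplicons were sequenced. Growth estimate is the slope of a robust linear fit of total-sum-normalised read counts (normalised to the first time point) over time, using at least 2 replicates. Sequences are classed functional (TAD activity) above a threshold of -0.13, set from stop-codon control sequences.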
row,Substance,growth estimate
1,IPIK,< -0.25
2,LGRHSTPPVPESESIRFNTN,< -0.253
3,TGFMTRGAQLLLRKFVGFEK,< -0.25
4,TPWMVKQT,< -0.25
5,GEPIAGRIIKCTVRRRRKTP,< -0.25
6,FTSAELPLGVLGYLYKFWGV,< -0.25
7,TMKQ,< -0.25
8,KRT,< -0.25
9,GLELDIG,< -0.25
10,EYLSCYPQELLLNAPMRRRG,< -0.25
11,MHKFARLA,< -0.25
12,EQRSDNRGDMCRIK,< -0.25
13,GATLSTLFIQVYVMTQA,< -0.25
14,CTDPFKEYA,< -0.25
15,KCGLGVLPP,< -0.25
16,KTIRGTRC,< -0.25
17,CSVGKPWVSSGSNSGSVRGS,< -0.25
18,LQG,< -0.25
19,SLLLLQSGAVGNYRTLPMDN,< -0.25
20,WHREYC,< -0.25
21,VVSRYSDAGLSDAWSVCLSP,< -0.25
22,LGHQLGSVQSQSALHMRATP,< -0.25
23,THRK,< -0.25
24,IVPFGISPVLVDR,< -0.25
25,PNIPNRAELTQEYFSGPAI,< -0.25
26,GAIWGFNL,< -0.25

row,Substance,growth estimate
1,LHGKWVHRDGPRLVQNPQSA,< -0.25
2,SIWFSSKRDTLYLFRYASFK,< -0.25
3,HGWSKKDIFRESVDARRPDA,< -0.25
4,RAITLVPAKTSAL,< -0.25
5,VHGSEVVCDWYLDWAWEVTV,< -0.25
6,TTALHGS,< -0.25
7,CYCYVVSR,< -0.25
8,GWRPSSTYGCCAPLSGIGAL,< -0.25
9,LLSQDLKTY,-0.243
10,GGGKCAGLFN,< -0.25
11,RRAKARPCGRGIWRPTTRFH,< -0.25
12,APRAMGSDRTAIGRVVAEIA,< -0.253
13,NTTLAEEPGG,< -0.25
14,LETCPYLGRRKTKSGRRGGF,< -0.25
15,RSCPTFIV,< -0.25
16,RKLSISYFTLQWATMRYLCA,< -0.25
17,GENDHYRAPHFTTNGVTVLQ,< -0.25
18,KWLFL,< -0.25
19,REGYLLY,< -0.25
20,IGGGRASRHNALACGVNDLG,< -0.25
21,DVRACYVLRELSFEALVPRL,< -0.25
22,TRLNKDANLQQGW,< -0.25
23,QARVLLRTFVVRVPRVHSSS,< -0.25
24,CGIRV,< -0.25
25,GEGVDRCDGGGIFRCR,< -0.25
26,LIRVKEQGFCAA,< -0.25

row,Substance,growth estimate
1,FKIDSLIIIV,< -0.25
2,RHKRPSGVPGPGLDVQPGRR,< -0.25
3,YVCM,< -0.25
4,DWDRPWRVARRPITPRILGT,< -0.25
5,PESVRNARSAVDNDFGFAAV,-0.232
6,LRLKMPPGSVRMSLREGP,< -0.25
7,GQLVGCTDTWDRLRGGAIQF,-0.25
8,NCDWDGWG,-0.23
9,HHVRLSRARVRQTPGRLYTS,< -0.25
10,GCRCLSGIWYGVNARRINQA,< -0.25
11,LELRYWGER,< -0.25
12,MGFGEIAGLW,< -0.25
13,ISWL,< -0.25
14,GLHCYYREPQKCGPDNRGLL,< -0.25
15,MGLPWSPRDP,< -0.25
16,RTKCLV,< -0.25
17,PSHIYWVVSPVGGVLILQQS,< -0.25
18,RTYDGGEILIVGVLKVHTRR,< -0.25
19,ARFSDPRQDLCPVPSP,< -0.25
20,LVSYQRGTASIFLNGISLDP,< -0.25
21,NRNWHALKHVLH,< -0.25
22,HRQPIKMARPMLRWISSRAL,< -0.25
23,MKRRDRHGGRPRHPPGLAAR,< -0.25
24,ETLYFCFALAIERGKISRGS,< -0.25
25,FICPRLNRH,< -0.25
26,FMVAHAMPITLGQKEQTFK,< -0.25

row,Substance,growth estimate
1,NFFPANTVGLGTMIRSADKC,< -0.25
2,LVVKDKFRVENTVILNIALM,< -0.25
3,VSSEIEF,< -0.25
4,AIRAGNQALLC,< -0.25
5,GDRPPCEPDGRADAPRPVAF,< -0.25
6,HRSVTLYWHNFGLSWLPGQC,< -0.25
7,KVLRKARRVVGETKPRL,< -0.25
8,HTTCSRARYGSAHTAIVA,< -0.25
9,PCEKSGFSLGTSWCSWVVGL,< -0.25
10,PILRGIGYIFGRLGTAGVSS,< -0.25
11,QTDSILDY,< -0.25
12,VRPER,< -0.25
13,NYVSRVVSHYNGNPGSRYSP,< -0.25
14,IVETTYSLVCVFERLANSSI,< -0.25
15,SGQEGKGGSGG,< -0.25
16,DSRIRTDSAVCKTSDETLSL,< -0.25
17,SNARKLGAKISLTGLAGPHT,< -0.25
18,INRALPHSGTRLRVKAPTWE,< -0.25
19,GTSCYESSARCLSRDEIGIS,-0.246
20,TPPGLRDRAKRGRDAMPVI,< -0.25
21,GSRPPALGRCGSGTIAFVIP,< -0.25
22,AHFHSS,-0.133
23,TCRKAS,< -0.25
24,KVSLVALGTVGQCRLPRLDN,< -0.25
25,EMADLLWFRRPLMIDQPTVG,< -0.25
26,RWEVSFGMILIHVGSDESKV,< -0.25

row,Substance,growth estimate
1,FIHRYYGTVCINTHIDRSSW,< -0.25
2,IASFWLVQRYRSPHVLVISS,< -0.25
3,QHRG,< -0.25
4,SRDRVELGFHCSHKLSDLRL,< -0.25
5,SASHSYLLYFSLMFLERSDR,< -0.253
6,GAILQNIKPCTANES,< -0.25
7,SKT,< -0.25
8,NDQSEGSAATCLYDLRSFGT,< -0.25
9,IGSTTSCMLLRTMHAP,-0.0747
10,RPIRREVLRQSIATTLVPIA,-0.197
11,GFYSLLN,< -0.25
12,KAVCRDSYVRPSGMSSYLSP,< -0.25
13,PFHLAVAGCRRSSQYFLQLC,< -0.25
14,VRTHTCVRYGTVGSMLELVW,< -0.25
15,TSHKTLR,< -0.25
16,SKTFAHLTKQLSFGYDKPSN,< -0.25
17,FFSTYRSCAKEVSFFFLQTR,< -0.25
18,VRCSIDGRLLGTPI,< -0.25
19,GPRLRTKSRVL,< -0.25
20,AAGDCSVRSL,< -0.25
21,SGTR,< -0.25
22,ICGVSRLVICHRRFRAFRAD,< -0.25
23,PGRHAVG,< -0.25
24,LKYMSLVQSAPLRPTSPFPN,< -0.25
25,IFACGTAGPGRARAHSGCVR,< -0.25
26,LGFQENS,< -0.25

# Pulled one by one from the entries so far (3):
row,Substance,growth estimate
23,PGRHAVG,< -0.25
17,FFSTYRSCAKEVSFFFLQTR,< -0.25
4,SRDRVELGFHCSHKLSDLRL,< -0.25

# Some of the entries so far, bar-delimited.
row | Substance | growth estimate
11 | GFYSLLN | < -0.25
12 | KAVCRDSYVRPSGMSSYLSP | < -0.25
13 | PFHLAVAGCRRSSQYFLQLC | < -0.25
14 | VRTHTCVRYGTVGSMLELVW | < -0.25
15 | TSHKTLR | < -0.25

# Continued.

row,Substance,growth estimate
1,QITIRYLTGGTPVC,< -0.25
2,TSVRFYLSAVIDC,< -0.25
3,RASSTRTAAADKC,< -0.25
4,KSCRFAVLVPGIWPKRSCMG,< -0.25
5,QHVGRSVWGRREWYQAGLSG,< -0.25
6,LRSRQSGLT,< -0.25
7,RLPRLQTGTDLEKRWFPHSA,< -0.25
8,TVPRAQAPRSVDLRSNGPTP,< -0.25
9,SVGQ,< -0.25
10,ATGISRLF,< -0.25
11,GPCFGQRYIGCGTF,< -0.25
12,TDSLGGFWYRGERVSIPCTA,< -0.25
13,IASQRVIRMLSP,-0.239
14,LTPSSLSG,< -0.25
15,YLISSQSHCLRLFQQRTT,< -0.25
16,GPGHSDWSGLEAPGHMSWTP,< -0.25
17,HSTSRSGVWFPAEWA,< -0.25
18,PFVATCIKSNRVQMNKVTYL,-0.237
19,GIPTSLAVFSLFMGTGPPHR,-0.235
20,GEVPQEARRGLCGALAFSHN,< -0.25
21,ERPMACF,< -0.25
